Some of these results come from one statement about several compounds together.
Target: T1, hCav2.2 (Homo sapiens, UniProt Q00975)
T1 construct: expressed in transfected cells; plasmids pCIN5-hCav2.2, pCIH-hCav β3, pCIP-α2δ1
Assay: hCav2.2 assay (IonWorks planar array electrophysiology, HEK293 stable cell line)
Assay type: cell-based
Settings: HEK293 cells expressing human Cav2.2 α/β3/α2δ1, tested in the form described in the Examples; for pUD30 (use-dependent pUD30, concentration producing 30% use-dependent inhibition): 10th versus 1st depolarising pulse, 10 Hz, -90 mV to +10 mV; for mean pIC50 (tonic pIC50): inhibition of current elicited by the 1st depolarising pulse
Procedure: Compounds of the invention may be tested for in vitro biological activity in the hCav2.2 assay in accordance with the following studies:
Stable cell lines expressing the human Cav2.2 α (α1B) subunit, along with the human β3 and α2δ1 auxiliary subunits were created following sequential transfection and selection of human embryonic kidney (HEK293) cells. HEK293 cells were cultured in Dulbecco's modified Eagles media/F12 media (Invitrogen, Cat # 041-95750V) containing 10% foetal bovine serum, with added L-glutamine (2 mM; Invitrogen, Cat # 25030-024) and non-essential amino acids (5%; Invitrogen, Cat # 11140-035). Initially HEK293 cells were transfected with two plasmid vectors for expression of the hCav2.2 α subunit (pCIN5-hCav2.2 which carries a neomycin resistance marker) and the hCav β3 subunit (pCIH-hCav β3 which carries a hygromycin resistance marker). Clonal cell lines were isolated following selection in media supplemented with 0.4 mg ml^−1 Geneticin G418 (Invitrogen, Cat # 10131-027) and 0.1 mg ml^−1 hygromycin (Invitrogen, Cat # 10687-010). These clonal cell lines were assessed for Cav2.2 α/β3-mediated current expression using the IonWorks planar array electrophysiology technology (described below). A clonal line was identified that gave a reasonable level of functional Cav2.2 α/β3 current expression. This cell line was transfected with a plasmid vector for expression of the human α2δ1 subunit (pCIP-α2δ1 which carries a puromycin resistance marker) and clonal cell lines isolated following selection in media containing 0.62 μg ml^−1 puromycin (Sigma, Cat # P-7255), in addition to 0.4 mg ml^−1 Geneticin G418 and 0.1 mg ml^−1 hygromycin. Several cell lines were identified that gave robust levels of Cav2.2 α/β3/α2δ1-mediated current expression and one of these was selected for compound profiling. Expression of all three subunits within this cell line was continuously maintained by the inclusion of G418 (0.4 mg ml^−1), hygromycin (0.1 mg ml^−1) and puromycin (0.62 μg ml^−1). Cells were maintained at 37° C. in a humidified environment containing 5% CO2 in air. Cells were liberated from the T175 culture flasks for passage and harvesting using TrpLE (Invitrogen, Cat # 12604-013).
Cells were grown to 30-60% confluence in T175 flasks and maintained at 30° C. for 24 hrs prior to recording. Cells were lifted by removing the growth media, washing with Ca^2+ free PBS (Invitrogen, Cat #14190-094) and incubating with 3 ml of warmed (37° C.) TrpLE (Invitrogen, Cat # 12604-013) for 6 minutes. Lifted cells were suspended in 10 ml of extracellular buffer. Cell suspension was then placed into a 15 ml tube and centrifuged for 2 minutes at 700 rpm. After centrifugation, the supernatant was removed and the cell pellet was resuspended in 4.5 ml of extracellular solution.
Currents were recorded at room temperature (21-23° C.) using the IonWorks planar array electrophysiology technology (Molecular Devices Corp.). Stimulation protocols and data acquisition were carried out using a microcomputer (Dell Pentium 4). In order to determine planar electrode hole resistances (Rp), a 10 mV, 160 ms potential difference was applied across each hole. These measurements were performed before cell addition. After cell addition a seal test was performed prior to antibiotic (amphotericin) circulation to achieve intracellular access. Leak subtraction was conducted in all experiments by applying a 160 ms hyperpolarizing (10 mV) prepulse 200 ms before the test pulses to measure leak conductance. Test pulses stepping from the holding potential (VH) of −90 mV to +10 mV were applied for 20 ms and repeated 10 times at a frequency of 10 Hz. In all experiments, the test pulse protocol was performed in the absence (pre-read) and presence (post-read) of a compound. Pre- and post-reads were separated by a compound addition followed by a 3-3.5 min incubation. […]

By UniProt entry, the sequences of proteins in these tests, tags left out.
UniProt Q00975, whole entry: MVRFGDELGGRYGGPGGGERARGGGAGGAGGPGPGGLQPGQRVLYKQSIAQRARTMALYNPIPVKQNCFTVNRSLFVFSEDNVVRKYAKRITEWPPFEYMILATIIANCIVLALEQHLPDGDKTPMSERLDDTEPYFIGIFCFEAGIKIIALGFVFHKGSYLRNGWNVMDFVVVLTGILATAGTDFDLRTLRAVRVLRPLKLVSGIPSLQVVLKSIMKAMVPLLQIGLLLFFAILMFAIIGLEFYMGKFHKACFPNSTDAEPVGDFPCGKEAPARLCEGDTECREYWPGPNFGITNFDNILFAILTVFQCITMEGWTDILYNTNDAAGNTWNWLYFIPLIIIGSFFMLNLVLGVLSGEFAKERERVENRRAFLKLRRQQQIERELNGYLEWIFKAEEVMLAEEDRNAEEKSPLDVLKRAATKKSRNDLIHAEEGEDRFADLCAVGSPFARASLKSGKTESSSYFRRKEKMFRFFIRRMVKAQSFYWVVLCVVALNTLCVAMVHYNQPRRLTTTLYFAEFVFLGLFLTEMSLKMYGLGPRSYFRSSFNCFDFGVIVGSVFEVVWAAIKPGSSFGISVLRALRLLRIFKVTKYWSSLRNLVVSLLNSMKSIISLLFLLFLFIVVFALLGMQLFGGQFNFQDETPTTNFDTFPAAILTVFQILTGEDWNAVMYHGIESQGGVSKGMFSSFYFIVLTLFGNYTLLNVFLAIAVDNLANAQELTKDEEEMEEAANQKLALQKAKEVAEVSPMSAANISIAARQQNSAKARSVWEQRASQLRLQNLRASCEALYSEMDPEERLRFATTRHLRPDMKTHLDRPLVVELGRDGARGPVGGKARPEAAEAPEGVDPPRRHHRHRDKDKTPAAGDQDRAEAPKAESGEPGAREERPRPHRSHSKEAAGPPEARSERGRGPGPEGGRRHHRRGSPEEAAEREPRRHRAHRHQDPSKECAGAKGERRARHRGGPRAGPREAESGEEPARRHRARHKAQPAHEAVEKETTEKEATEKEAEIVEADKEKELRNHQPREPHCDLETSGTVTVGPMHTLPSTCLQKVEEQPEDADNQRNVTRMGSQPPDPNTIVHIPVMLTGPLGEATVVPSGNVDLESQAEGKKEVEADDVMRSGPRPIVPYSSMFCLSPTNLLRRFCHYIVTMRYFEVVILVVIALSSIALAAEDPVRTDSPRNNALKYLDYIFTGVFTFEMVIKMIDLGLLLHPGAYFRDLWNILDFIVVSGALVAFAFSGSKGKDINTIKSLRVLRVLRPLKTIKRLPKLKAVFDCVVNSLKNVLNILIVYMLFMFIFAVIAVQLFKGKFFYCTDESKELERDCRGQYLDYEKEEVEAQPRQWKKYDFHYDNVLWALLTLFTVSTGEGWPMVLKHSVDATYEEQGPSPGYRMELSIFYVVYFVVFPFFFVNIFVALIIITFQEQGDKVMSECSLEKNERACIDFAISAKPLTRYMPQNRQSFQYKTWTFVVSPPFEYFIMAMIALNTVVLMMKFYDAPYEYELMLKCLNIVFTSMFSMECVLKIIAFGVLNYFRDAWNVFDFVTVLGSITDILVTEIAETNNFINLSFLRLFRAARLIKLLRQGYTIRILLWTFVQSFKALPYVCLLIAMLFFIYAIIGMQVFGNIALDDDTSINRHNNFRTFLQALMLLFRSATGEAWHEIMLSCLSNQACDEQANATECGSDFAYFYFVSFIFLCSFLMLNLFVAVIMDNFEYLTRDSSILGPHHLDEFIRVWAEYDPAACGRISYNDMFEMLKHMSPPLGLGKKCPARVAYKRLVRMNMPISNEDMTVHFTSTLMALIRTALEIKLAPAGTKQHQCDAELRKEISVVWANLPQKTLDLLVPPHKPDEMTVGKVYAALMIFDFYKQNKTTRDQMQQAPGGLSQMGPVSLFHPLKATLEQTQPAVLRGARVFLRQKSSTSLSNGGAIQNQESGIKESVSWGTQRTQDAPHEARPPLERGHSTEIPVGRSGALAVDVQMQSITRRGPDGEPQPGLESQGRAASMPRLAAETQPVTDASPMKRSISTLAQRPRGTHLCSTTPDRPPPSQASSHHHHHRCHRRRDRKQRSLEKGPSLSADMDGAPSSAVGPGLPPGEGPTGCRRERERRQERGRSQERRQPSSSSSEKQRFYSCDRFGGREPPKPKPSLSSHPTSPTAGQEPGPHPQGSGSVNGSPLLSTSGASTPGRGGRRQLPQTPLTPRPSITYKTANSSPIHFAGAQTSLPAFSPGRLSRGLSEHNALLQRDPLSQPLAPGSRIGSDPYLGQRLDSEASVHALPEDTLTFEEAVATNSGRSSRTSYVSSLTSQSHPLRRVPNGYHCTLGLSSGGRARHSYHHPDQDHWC

Row | Compound | pUD30 (use-dependent pUD30, concentration producing 30% use-dependent inhibition) | mean pIC50 (tonic pIC50) | also measured
1 | O=C(c1ccc(-c2ccccn2)cn1)N1CCN(S(=O)(=O)c2ccc(C(F)(F)F)cc2)CC1 [Example 7, 6′[(4-{[4-(Trifluoromethyl)phenyl]sulfonyl}-1-piperazinyl)carbonyl]-2,3′-bipyridine] | ≥ 4.5 | ≤ 5.0 | –
2 | Cc1cccc(C(=O)N2CCN(S(=O)(=O)c3ccc(C(F)(F)F)cc3)CC2)n1 [Example 2, 1-[(6-Methyl-2-pyridinyl)carbonyl]-4-{[4-(trifluoromethyl)phenyl]sulfonyl}piperazine] | ≥ 4.5 | ≤ 5.0 | –
3 | Cc1cccnc1C(=O)N1CCN(S(=O)(=O)c2ccc(C(F)(F)F)cc2)C[C@@H]1C.Cl [Example 1, (2S)-2-Methyl-1-[(3-methyl-2-pyridinyl)carbonyl]-4-{[4-(trifluoromethyl)phenyl]sulfonyl}piperazine hydrochloride] | – | ≤ 5.0 | pUD30 (use-dependent pUD30, concentration producing 30% use-dependent inhibition) (hydrochloride): ≥ 5.0; pUD30 (use-dependent pUD30, concentration producing 30% use-dependent inhibition) (listed as compound 1, hydrochloride): ≥ 4.5
4 | Cc1cccnc1C(=O)N1CCN(S(=O)(=O)c2ccc(C(F)(F)F)cc2)CC1 [Example 3, 1-[(3-Methyl-2-pyridinyl)carbonyl]-4-{[4-(trifluoromethyl)phenyl]sulfonyl}piperazine] | ≥ 4.5 | ≤ 5.0 | –
5 | C[C@H]1CN(S(=O)(=O)c2ccc(C(F)(F)F)cc2)CCN1C(=O)c1ccccn1.O=CO [Example 4, (2S)-2-methyl-1-(2-pyridinylcarbonyl)-4-{[4-(trifluoromethyl)phenyl]sulfonyl}piperazine formic acid salt (1:1)] | ≥ 5.0 | ≤ 5.0 | pUD30 (use-dependent pUD30, concentration producing 30% use-dependent inhibition) (listed as compound 4): ≥ 4.5
6 | O=C(c1cc(-c2ccccn2)ccn1)N1CCN(S(=O)(=O)c2ccc(C(F)(F)F)cc2)CC1 [Example 5, 2′-[(4-{[4-(Trifluoromethyl)phenyl]sulfonyl}-1-piperazinyl)carbonyl]-2,4′-bipyridine] | ≥ 4.5 | ≤ 5.0 | –
7 | Cc1cc(C(=O)N2CCN(S(=O)(=O)c3ccc(C(F)(F)F)cc3)C[C@@H]2C)ccn1.O=CO [Example 10, (2S)-2-methyl-1-[(2-methyl-4-pyridinyl)carbonyl]-4-{[4-(trifluoromethyl)phenyl]sulfonyl}piperazine formic acid salt (1:1)] | ≥ 5.0 | ≤ 5.0 | pUD30 (use-dependent pUD30, concentration producing 30% use-dependent inhibition) (listed as compound 10): ≥ 4.5
8 | O=C(c1ccncc1)N1CCN(S(=O)(=O)c2ccc(C(F)(F)F)cc2)CC1 [Example 8, 1-(4-Pyridinylcarbonyl)-4-{[4-(trifluoromethyl)phenyl]sulfonyl}piperazine] | ≥ 4.5 | ≤ 5.0 | –
9 | Cc1cccnc1C(=O)N1CCN(S(=O)(=O)c2ccc(C(F)(F)F)cc2)[C@@H](C)C1 [Example 14, (2S)-2-methyl-4-[(3-methyl-2-pyridinyl)carbonyl]-1-{[4-(trifluoromethyl)phenyl]sulfonyl}piperazine] | – | ≤ 5.0 | –
10 | C[C@H]1CN(S(=O)(=O)c2ccc(C(F)(F)F)cc2)CCN1C(=O)c1cc(N2CCC2)ccn1 [Example 19, (2S)-1-{[4-(1-Azetidinyl)-2-pyridinyl]carbonyl}-2-methyl-4-{[4-(trifluoromethyl)phenyl]sulfonyl}piperazine] | – | ≤ 5.0 | –
11 | Cc1cc(C(=O)N2CCN(S(=O)(=O)c3ccc(C#N)cc3)C[C@@H]2C)ccn1 [Example 15, 4-({(3S)-3-methyl-4-[(2-methyl-4-pyridinyl)carbonyl]-1-piperazinyl}sulfonyl)benzonitrile] | – | ≤ 5.0 | –
12 | C[C@H]1CN(S(=O)(=O)c2ccc(C#N)cc2)CCN1C(=O)c1ccccn1 [Example 12, 4-{[(3S)-3-methyl-4-(2-pyridinylcarbonyl)-1-piperazinyl]sulfonyl}benzonitrile] | – | ≤ 5.0 | –
13 | C[C@H]1CN(C(=O)c2ccccn2)CCN1S(=O)(=O)c1ccc(Cl)cc1.Cl [Example 6, (2S)-1-[(4-Chlorophenyl)sulfonyl]-2-methyl-4-(2-pyridinylcarbonyl)piperazine hydrochloride] | – | ≤ 5.0 | pUD30 (use-dependent pUD30, concentration producing 30% use-dependent inhibition) (hydrochloride): ≥ 5.0; pUD30 (use-dependent pUD30, concentration producing 30% use-dependent inhibition) (listed as compound 6, hydrochloride): ≥ 4.5
14 | Cc1cccnc1C(=O)N1CCN(S(=O)(=O)c2ccc(C(F)(F)F)cc2)[C@H](C)C1 [Example 13, (2R)-2-methyl-4-[(3-methyl-2-pyridinyl)carbonyl]-1-{[4-(trifluoromethyl)phenyl]sulfonyl}piperazine] | ≥ 4.5 | ≤ 5.0 | –
15 | Cc1cc(C(=O)N2CCN(S(=O)(=O)c3ccc(C(F)(F)F)cc3)CC2)ccn1 [Example 9, 1-[(2-Methyl-4-pyridinyl)carbonyl]-4-{[4-(trifluoromethyl)phenyl]sulfonyl}piperazine] | ≥ 5.0 | ≤ 5.0 | pUD30 (use-dependent pUD30, concentration producing 30% use-dependent inhibition) (listed as compound 9): ≥ 4.5
16 | C[C@@H]1CN(S(=O)(=O)c2ccc(Cl)cc2)CCN1C(=O)c1ccccn1 [Example 11, (2R)-4-[(4-chlorophenyl)sulfonyl]-2-methyl-1-(2-pyridinylcarbonyl)piperazine] | ≥ 4.5 | ≤ 5.0 | –
17 | C[C@H]1CN(S(=O)(=O)c2ccc(C(F)(F)F)cc2)CCN1C(=O)c1cc(N(C)C)ccn1.Cl [Example 18, N,N-Dimethyl-2-[((2S)-2-methyl-4-{[4-(trifluoromethyl)phenyl]sulfonyl}-1-piperazinyl)carbonyl]-4-pyridinamine hydrochloride] | – | ≤ 5.0 | –
18 | C[C@H]1CN(S(=O)(=O)c2ccc(C(F)(F)F)cc2)CCN1C(=O)c1cc(Cl)ccn1 [Example 17, (2S)-1-[(4-Chloro-2-pyridinyl)carbonyl]-2-methyl-4-{[4-(trifluoromethyl)phenyl]sulfonyl}piperazine] | – | ≤ 5.0 | –

From US8530478B2, “Piperazine derivatives used as CAV2.2 calcium channel modulators” (Convergence Pharmaceuticals Limited, priority 2008, dated 2013)
